Results are given in words; binding and its absence hold for the method and conditions named. In cells and extracts the contact can be indirect. Some entries that bind do so weakly or less than the wild type.
Legend:
[1] = molecular target: Flag-tagged K310R mutant RelA (mouse) (UniProt Q04207); experiment: co-IP; Flag-RelA (WT, K310R or lacK310) held on anti-Flag M2 magnetic beads, incubated with 1 mM SLG (150 mM NaCl, 50 mM Tris-HCl, pH 8.0; 37 °C, 3 h) or buffer alone; equal masses of RelA then incubated with macrophage lysate supernatant at 4 °C for 4 h, washed three times, immunoblot; only the target purified
[2] = molecular target: Flag-tagged WT RelA (mouse) (UniProt Q04207); experiment: as above

The chains behind the UniProt entries cited, without tags or fusion partners. Where a name states a change or a piece, a line headed by the entry shows the natural chain unless it says otherwise.
UniProt Q04207: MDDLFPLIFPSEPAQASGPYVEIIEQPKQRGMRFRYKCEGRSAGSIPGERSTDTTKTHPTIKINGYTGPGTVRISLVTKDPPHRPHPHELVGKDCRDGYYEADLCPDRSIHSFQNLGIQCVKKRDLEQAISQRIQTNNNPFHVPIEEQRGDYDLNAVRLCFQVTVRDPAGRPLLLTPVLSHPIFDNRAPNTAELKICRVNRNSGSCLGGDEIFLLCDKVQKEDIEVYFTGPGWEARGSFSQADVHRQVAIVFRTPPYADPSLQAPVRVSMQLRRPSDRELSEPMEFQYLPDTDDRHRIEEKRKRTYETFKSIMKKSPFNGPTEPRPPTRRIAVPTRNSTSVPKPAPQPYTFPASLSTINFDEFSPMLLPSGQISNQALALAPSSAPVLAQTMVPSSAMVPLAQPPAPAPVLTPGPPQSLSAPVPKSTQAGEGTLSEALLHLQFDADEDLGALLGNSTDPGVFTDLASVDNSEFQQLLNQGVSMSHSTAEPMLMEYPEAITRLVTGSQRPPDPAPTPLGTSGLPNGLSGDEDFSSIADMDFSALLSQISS
UniProt Q9Z1E3: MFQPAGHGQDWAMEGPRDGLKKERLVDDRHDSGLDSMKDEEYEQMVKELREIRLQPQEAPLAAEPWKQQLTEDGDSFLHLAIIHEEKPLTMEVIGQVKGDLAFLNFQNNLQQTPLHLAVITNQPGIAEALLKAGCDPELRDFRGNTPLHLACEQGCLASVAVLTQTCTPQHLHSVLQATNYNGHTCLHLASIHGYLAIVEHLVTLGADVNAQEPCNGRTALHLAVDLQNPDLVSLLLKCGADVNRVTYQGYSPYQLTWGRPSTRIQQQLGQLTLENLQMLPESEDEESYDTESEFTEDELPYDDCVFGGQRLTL

- binding [1]: binds
- binding [2]: binds
Substance: IκB (from UniProt Q9Z1E3 1-314)

Reference: paper PMC11770101, “Nonenzymatic lysine D-lactylation induced by glyoxalase II substrate SLG dampens inflammatory immune responses” (Cell Research, 2025)
